Laboratory results taken from patent US20250340655A1, “EPHA2-TARGETING ANTIBODIES AND THEIR APPLICATIONS IN CANCER TREATMENT” (TAIPEI MEDICAL UNIVERSITY, priority 2022, published 2025).
These are yes or no findings as the source states them, for the method shown. Some entries that bind do so weakly or less than the wild type.

Chains of the proteins cited; added tags and fusions are not shown. Residues count along the entry.
UniProt P29317, residues 24-976: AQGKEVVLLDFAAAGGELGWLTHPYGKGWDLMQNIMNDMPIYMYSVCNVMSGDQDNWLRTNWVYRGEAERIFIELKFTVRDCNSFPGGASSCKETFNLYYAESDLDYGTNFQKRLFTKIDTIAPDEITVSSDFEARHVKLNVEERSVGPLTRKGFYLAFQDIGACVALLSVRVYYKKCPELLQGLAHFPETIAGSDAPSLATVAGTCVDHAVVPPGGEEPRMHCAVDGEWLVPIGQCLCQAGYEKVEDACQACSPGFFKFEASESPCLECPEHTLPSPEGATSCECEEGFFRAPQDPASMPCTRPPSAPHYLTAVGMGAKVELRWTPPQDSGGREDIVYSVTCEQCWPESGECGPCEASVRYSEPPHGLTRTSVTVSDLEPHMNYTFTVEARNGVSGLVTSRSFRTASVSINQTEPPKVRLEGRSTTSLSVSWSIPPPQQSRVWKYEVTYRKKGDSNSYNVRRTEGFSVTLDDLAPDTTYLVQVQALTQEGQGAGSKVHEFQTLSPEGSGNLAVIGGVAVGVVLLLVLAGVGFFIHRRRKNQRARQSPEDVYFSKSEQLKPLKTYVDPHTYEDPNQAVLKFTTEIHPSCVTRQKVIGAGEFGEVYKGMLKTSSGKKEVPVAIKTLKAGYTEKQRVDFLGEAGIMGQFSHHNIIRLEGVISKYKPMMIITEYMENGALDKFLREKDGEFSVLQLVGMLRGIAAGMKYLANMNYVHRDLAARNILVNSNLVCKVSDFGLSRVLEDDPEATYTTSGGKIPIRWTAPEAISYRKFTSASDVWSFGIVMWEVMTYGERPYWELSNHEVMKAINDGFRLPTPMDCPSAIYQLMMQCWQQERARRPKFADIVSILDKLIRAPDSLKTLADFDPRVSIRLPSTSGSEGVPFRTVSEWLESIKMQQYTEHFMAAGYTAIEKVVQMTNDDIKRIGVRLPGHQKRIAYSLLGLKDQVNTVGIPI
UniProt P20827, residues 19-182: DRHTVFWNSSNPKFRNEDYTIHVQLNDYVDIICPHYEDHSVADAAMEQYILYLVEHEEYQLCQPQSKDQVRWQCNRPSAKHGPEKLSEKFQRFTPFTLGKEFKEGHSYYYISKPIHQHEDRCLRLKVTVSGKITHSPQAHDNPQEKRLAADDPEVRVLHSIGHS

Molecular target: endogenous EphA2 molecule on cancer cells (human) (UniProt P29317)
Assay: confocal microscopy of BxPc-3 cells, anti-human Fc staining

- binding: binds
Substance: ephrin A1-Fc (Sino Biological) (from UniProt P20827 19-182) (Fc fusion)
